# ChEMBL document CHEMBL4359862, “Cinnamamide: An insight into the pharmacological advances and structure-activity relationships” (Eur J Med Chem, 2019)
# Legend:
# [1] = tested on: Escherichia coli; assay: Antibacterial activity against Escherichia coli assessed as reduction in bacterial cell viability incubated for 24 hrs by serial dilution assay; format: functional
# [2] = tested on: Candida albicans; assay: Antifungal activity against Candida albicans assessed as reduction in fungal cell growth incubated for 48 hrs by serial dilution assay; format: functional
smiles,measurement,setting,value
COc1ccc(NC(=O)/C=C/c2ccccc2)cc1 [N-(4-METHOXYPHENYL)CINNAMAMIDE],log(1/MIC),[1],2.43
same,log(1/MIC),[2],2.43
